In paper PMC11586402:
No constants are given. Whether binding was seen depends on the method and setting. Binding seen in cells or lysates may run through a third protein. Here binding means that the protein was enriched with, or labelled near, the bait; the list need not be complete. Tags and fused reporters may be left off the sequences shown.

Target: T1, GST-Zfp260 (mouse) (UniProt Q62513)
T1 sequence: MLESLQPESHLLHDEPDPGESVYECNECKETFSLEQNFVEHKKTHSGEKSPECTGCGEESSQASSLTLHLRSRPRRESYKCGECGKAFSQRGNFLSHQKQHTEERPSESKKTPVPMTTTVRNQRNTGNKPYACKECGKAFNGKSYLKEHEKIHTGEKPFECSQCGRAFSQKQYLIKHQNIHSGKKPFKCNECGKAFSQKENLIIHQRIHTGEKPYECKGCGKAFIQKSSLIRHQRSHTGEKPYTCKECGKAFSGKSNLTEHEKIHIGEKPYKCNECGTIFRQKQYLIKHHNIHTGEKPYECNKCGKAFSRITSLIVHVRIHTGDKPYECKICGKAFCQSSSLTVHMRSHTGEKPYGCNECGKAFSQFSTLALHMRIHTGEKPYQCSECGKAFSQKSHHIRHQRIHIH
Assay: affinity purification with mass spectrometry; GST-Zfp260 captured on glutathione magnetic agarose beads, incubated with whole cell lysates of PSCs at 4 °C overnight; eluate silver stained and analysed by mass spectrometry; GST alone as control; only the target purified

Prkca (from UniProt P20444 1-672) (enzyme)
binding: binds
